Measured values from PubChem BioAssay AID1347076 (National Center for Advancing Translational Sciences (NCATS), 2019).
Several values for one entry are separate records, joined by “and”; a condition that tells them apart may be missing. Equal entries are not always repeated. Out of some 400,000 compounds screened, about 13,000 (3.2%) were called active. The shares of active, inactive and inconclusive entries below differ from those in the screen. Calls follow the shape of the dose curve; as a rule, active = well fitted cell-killing curve with a large enough effect; inconclusive = small, poorly fitted or top-dose-only effect, or effect the other way; inactive = flat fitted curve, though single readings scatter. A potency beside an inconclusive call is a rough fit, not a confirmed value.

Assay: qHTS assay for MDR1-selective chemotherapeutics: Primary screen using the drug-selected MDR subline cells KB-V1; also: nearly all actives have a fitted effect of over 60% in size
Conditions: KB-V1 MDR cells viability, CellTiter-Glo, 72 h; series mostly up to 46.1 µM
In short: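 Drug-selected KB-V1 cells, grown in DMEM lacking phenol red with 10% FBS, receive compound titrations; after three days at 37 degrees C, surviving cell ATP is quantified by CellTiter-Glo luminescence and responses normalized and curve-fitted.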
Potency is read from the fitted curve at half-maximal effect.

SMILES | Potency
CN(Cc1nc(-c2cccnc2)no1)S(=O)(=O)c1ccccc1 | inconclusive: 16.4 µM [cytotoxic, single point]
COc1ccccc1C(c1nnnn1C(C)(C)C)N1CCN(C(=O)c2ccco2)CC1 (stereo unspecified) | inconclusive: 4.61 µM [cytotoxic, partial curve]
O=C1C2CC=C(Cl)CC2C(=O)N1CCc1ccccc1 (stereo unspecified) | inconclusive: 10.3 µM [cytotoxic, partial curve]
O=C(NCCN1CCOCC1)C(=O)NCC1OCCN1S(=O)(=O)c1ccccc1 (stereo unspecified) | inconclusive: 29.1 µM [rising, single point]
CC(C)Cn1nc(C(=O)Nc2cccc(C(=O)NC3CC3)c2)c2ccccc2c1=O | inactive
Cc1nc2ncnn2c(Nc2ccc3c(c2)OCCO3)c1C | inconclusive: 29.1 µM [cytotoxic, single point]
O=C(NC(Cc1ccc(O)cc1)C(=O)O)c1ccc2c(c1)OCO2 (stereo unspecified) | inconclusive: 29.1 µM [rising, single point]
CCCCNC(=O)NNC(=O)COc1cccc(C)c1C | inconclusive: 29.1 µM [rising, single point]
O=C(Nc1ccccc1)N1CCC(C(=O)N2CCN(Cc3ccccc3)CC2)CC1 | inconclusive: 23.1 µM [cytotoxic, partial curve]
CCCCCCCCS(=O)c1sc2nc3c(cc2c1N)CCCC3 (stereo unspecified) | inconclusive: 14.6 µM [cytotoxic, partial curve]
COc1ccc(S(=O)(=O)n2ccc(C)n2)cc1C | inactive
CCOc1ccccc1Nc1nnc(SCC(=O)NC2CCS(=O)(=O)C2)s1 (stereo unspecified) | inactive
Cc1ccc(C)c(NC(=S)Nc2ncccc2C)c1 | inconclusive: 29.1 µM [cytotoxic, single point]
COc1cccc(CN(C)CC(=O)Nc2cc3oc4ccccc4c3cc2OC)c1 | inconclusive: 14.6 µM [cytotoxic, partial curve, poor fit]
CCOC(=O)c1cccc(NC(=O)c2c(NCc3ccccc3)[nH]c(=O)[nH]c2=O)c1 | inconclusive: 18.4 µM [cytotoxic, single point]
CCCCN(CC(=O)NC1CCCC1)C(=O)C(=O)Nc1ccc2c(c1)OCCO2 | inactive
CCOc1ccc2ccccc2c1CNCCN1CCOCC1 | inactive
CCCCOc1ccc(C(=O)NCC(=O)NCC(c2cccs2)N2CCOCC2)cc1 (stereo unspecified) | inconclusive: 9.2 µM [cytotoxic, partial curve]
CCOC(=O)N1CCN(c2ncnc3c2[nH]c2ccc(F)cc23)CC1 | inconclusive: 3.66 µM [cytotoxic, full curve]
CCN(C(=O)c1nn(-c2ccc(OC)c(Cl)c2)c(=O)c2c1c1ccccc1n2C)c1cc(OC)ccc1OC | inactive
O=C(Cc1ccccc1)Nc1cccc(S(=O)(=O)N2CCCCCC2)c1 | inconclusive: 32.6 µM [cytotoxic, single point]
CCCc1cc(-c2n[nH]c(=S)n2Cc2ccccc2)cs1 | inconclusive: 20.6 µM [cytotoxic, single point]
CCN1/C(=C\C=C2\C(=O)N(c3ccccc3)C(=S)N2C)Sc2ccccc21 | inactive
Cc1ccc(NC(=O)c2cccc(NC(=O)N3CCSc4ncccc43)c2)cc1Cl | inactive

Quoted at random: 5 records from the list, in no set order.
SMILES | Potency
CN(Cc1nc(-c2cccnc2)no1)S(=O)(=O)c1ccccc1 | inconclusive: 16.4 µM [cytotoxic, single point]
COc1ccc(S(=O)(=O)n2ccc(C)n2)cc1C | inactive
CCCCCCCCS(=O)c1sc2nc3c(cc2c1N)CCCC3 (stereo unspecified) | inconclusive: 14.6 µM [cytotoxic, partial curve]
O=C1C2CC=C(Cl)CC2C(=O)N1CCc1ccccc1 (stereo unspecified) | inconclusive: 10.3 µM [cytotoxic, partial curve]
O=C(Cc1ccccc1)Nc1cccc(S(=O)(=O)N2CCCCCC2)c1 | inconclusive: 32.6 µM [cytotoxic, single point]

(more compounds)

SMILES | Potency
COc1ccc(F)cc1S(=O)(=O)NCCc1csc(-c2ccc(Cl)cc2)n1 | inactive
Cc1c(O)cnc2nn(-c3ccccc3)c(=N)n12 | inactive
COc1ccc(S(=O)(=O)N2CCCCCC2)cc1C(=O)Nc1ccccn1 | inconclusive: 13 µM [cytotoxic, partial curve, poor fit]
Cc1ccc(N(CC(=O)NCc2ccc(F)cc2)S(=O)(=O)c2cccs2)cc1 | inconclusive: 8.2 µM [cytotoxic, partial curve]
OC1CCCN(c2ncnc3c2nnn3Cc2c(F)cccc2Cl)C1 (stereo unspecified) | inconclusive: 29.1 µM [cytotoxic, single point]
O=C(c1ccncc1)N1CCN(C2CCC(c3ccccc3)CC2)CC1 (stereo unspecified) | inconclusive: 0.206 µM [cytotoxic, full curve, poor fit]
CCc1nc2ccc(C(=O)NCCOc3ccc(OC)cc3)cn2c1N(C)C(=O)COc1ccccc1 | inconclusive: 20.6 µM [cytotoxic, partial curve, poor fit]
COc1ccc(C2C3=C(CCCC3=O)NC3=C2C(=O)c2ccccc23)cc1 (stereo unspecified) | inactive
O=C(NCc1ccco1)Nc1ccc2nsnc2c1 | inconclusive: 20.6 µM [cytotoxic, single point]
Cn1nnnc1Sc1ncnc2scc(-c3ccc(-c4ccccc4)cc3)c12 | inconclusive: 18.4 µM [cytotoxic, partial curve, poor fit]
Cc1onc(-c2ccccc2Cl)c1C(=O)Nc1ccc(OCC(=O)N2CCOCC2)cc1 | inconclusive: 20.6 µM [cytotoxic, partial curve]
COc1ccc(OC)c(NC(=O)COc2ccc(S(=O)(=O)NC(C)C)cc2)c1 | inconclusive: 2.91 µM [cytotoxic, full curve, poor fit]
CCOC(=O)N1CCC(NCCNC(=O)c2ccc(Cl)cc2)CC1 | inactive
Cc1ccc(Nc2nc(N)c(C#N)c(CC#N)c2C#N)cc1 | inactive
CC(=O)Nc1ccc(NC(=O)c2cc([N+](=O)[O-])cc([N+](=O)[O-])c2)cc1 | inactive
COC(=O)c1ccccc1NC1=C/C(=N\S(=O)(=O)c2cccs2)c2ccccc2C1=O | active: 18.4 µM and inconclusive: 16.4 µM [cytotoxic, partial curve, poor fit]
CC(C)C[C@H](NC(=O)Nc1cccc(Br)c1)C(=O)O | inactive
Clc1ccc(-c2noc(CN(Cc3ccccn3)CC3CCCO3)n2)cc1 (stereo unspecified) | inconclusive: 8.2 µM [cytotoxic, partial curve]
CN(C)c1ccc(/C=C/c2c3ccccc3cc[n+]2[O-])cc1 | inactive
Cc1nnc(SCC(=O)N(CC(C)C)c2c(N)n(Cc3ccccc3)c(=O)[nH]c2=O)n1N | inconclusive: 10.3 µM [rising, partial curve, poor fit]
OC(c1ccccc1)(c1nc(-c2cc3ccccc3o2)cs1)C(F)(F)F (stereo unspecified) | inconclusive: 23.1 µM [cytotoxic, single point]
Cc1c(C(=O)NCc2ccc3c(c2)OCO3)oc2ccccc12 | inconclusive: 29.1 µM [cytotoxic, single point]
CCSc1nnc(NC(=O)c2ccc3c(c2)OCO3)s1 | inconclusive: 4.61 µM [rising, full curve]
COC(=O)CN1C(=O)N/C(=C/c2cc(Cl)c(OC)c(OC)c2)C1=O | inconclusive: 7.31 µM [cytotoxic, partial curve, poor fit]

SMILES | Potency
CCCCc1c(-c2ccccc2Br)ncn1CCc1ccccc1OC | active: 14.6 µM
O=C(CCN1C(=O)C2CC=C(Cl)CC2C1=O)NCc1ccccc1 (stereo unspecified) | inconclusive: 29.1 µM [rising, single point]
Cc1nc(C)c(-c2nnc(-c3ccccc3Cl)o2)cc1C(=O)NN | inconclusive: 20.6 µM [rising, partial curve, poor fit]
COc1ccc(NC(=O)CN(C)S(=O)(=O)c2ccc3c(c2)CC(C)N3C(C)=O)cc1OC (stereo unspecified) | inactive
CCOC(=O)N1CCN(S(=O)(=O)c2ccc3c(c2)oc(=O)n3C)CC1 | active: 23.1 µM
COc1ccc(C(=O)OCc2ccccc2C#N)cc1S(=O)(=O)N1CCOCC1 | inconclusive: 13 µM [cytotoxic, partial curve]
Cc1[nH]c2ccccc2c1C(=O)/C=C/c1ccccc1Cl | inconclusive: 4.11 µM [cytotoxic, full curve, poor fit]
O=C(NCc1ccccc1F)C1CCCN1C(=O)NC1CCCCC1 (stereo unspecified) | active: 20.6 µM
Cc1nnsc1S(=O)c1ccc(Cl)c(Cl)c1 (stereo unspecified) | inconclusive: 18.4 µM [cytotoxic, single point]
CCCCc1nc2ccccc2c(NC(=O)CNC(C)(C)C)c1CCC | inconclusive: 32.6 µM [cytotoxic, single point]
CCn1c(CC(=O)Nc2cccc(OC)c2)nnc1SCC(=O)N1CCN(c2ccccc2)CC1 | inactive
CCCCn1c(SCC(=O)Nc2ccc3c(c2)OCCO3)nnc1C(CC)N(C)C (stereo unspecified) | inactive
O=C(O)c1cccc(NC(CNS(=O)(=O)c2ccc(Cl)cc2)c2ccccc2)c1 (stereo unspecified) | inactive
O=C(CCCN1C(=O)/C(=C\c2ccccc2)SC1=S)Nc1ccc(O)cc1C(=O)O | inconclusive: 29.1 µM [rising, single point]
O=C1OC(c2ccc(Cl)cc2)=N/C1=C\C=C\c1ccco1 | inactive
COc1ccccc1CCn1cnc(Cc2cccc(F)c2)c1C(C)C | active: 18.4 µM
CCc1ccc(/C=C(\Cl)c2nc3cc(Cl)ccc3c(=O)[nH]2)cc1 | inconclusive: 3.66 µM [rising, full curve]
CCCS(=O)(=O)NC(=O)C1(C)CCCN(C(=O)C2(c3ccc(Cl)cc3)CCCC2)C1 (stereo unspecified) | inactive
Cc1cccc(C)c1NC(=O)c1nc(S(=O)(=O)Cc2ccccc2)ncc1Cl | inconclusive: 13 µM [cytotoxic, partial curve, poor fit]
COC(=O)C1=CN(c2ccc3c(c2)OCO3)C(N)=C(C#N)C1c1ccccc1 (stereo unspecified) | active: 2.91 µM
Cc1ccc(-n2nc(-c3ccc(N)cc3)cc2N)cc1 | inactive
O=C(CN1C(=O)COc2ccc(Cl)cc21)Nc1nccs1 | inconclusive: 20.6 µM [cytotoxic, single point]
COc1ccc2cc(C(=O)c3ccccc3)c(=O)oc2c1 | inactive
